For this experiment, the target named is SARS-CoV-2 spike RBD (331–528 amino acids) (Severe acute respiratory syndrome coronavirus 2, UniProt P0DTC2). Kind of experiment: biochemical. The class given is binding.

For one compound, Kd results are on record in publication PMC9380819 (ACS Omega, 2022).

Broadly, the Kd is a measure of binding affinity in units of concentration. Higher therefore signals weaker binding.

`CC(C)NCC(O)COc1ccc(CC(N)=O)cc1` (stereo not shown) [atenolol]: the affinity, expressed as Kd, was 406 ± 206 nM.
